# From PubChem BioAssay AID624291 (National Center for Advancing Translational Sciences (NCATS), 2012)
# The campaign covered roughly 350,000 compounds. About 220 (0.063%) were called active. Inconclusive results, whose numbers are uncertain, are shown with a selection of clear calls. Calls follow the shape of the dose curve; as a rule, active = well fitted activation curve with a large enough effect; inconclusive = small, poorly fitted or top-dose-only effect; inactive = no such curve, though single readings can be large or run the other way. Potencies of inconclusive entries are doubtful fits and often do not repeat.
# Experiment: qHTS for Activators of Integrin-Mediated Alleviation for Muscular Dystrophy; also: nearly all actives have a fitted effect of over 60% in size;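 as to activation: 100% = response of the positive control SU9516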
# Conditions: alpha7betagal myoblasts, beta-gal FDG fluorescence, 48 h; activation: at 38.3 µM (top of the series)
# Text: Integrins are a diverse family of transmembrane cell surface receptors that mediate interactions between cells and the extracellular matrix. These heterodimeric proteins are composed of alpha and beta subunits and the a7b1 interacts with laminin in the extracellular matrix and actin of the cell cytoskeleton. Both chains contribute to ligand binding, but the alpha chain mediates the specificity of the interaction. The alpha7beta1 integrin is a major laminin receptor in skeletal, cardiac and vascular smooth muscle. Mutations in the alpha7 integrin gene are responsible for muscular dystrophy in both humans and mice. The alpha7beta1 integrin is also a major modifier of muscle disease progression in various muscle diseases including Duchenne muscular dystrophy, Fukuyama muscular dystrophy and merosin deficient congenital muscular dystrophy type 1A. […] Transcriptional regulation of the alpha7 integrin gene is poorly understood and probably involves multiple transcription factors. The goal of identifying small molecules that enhance alpha7 integrin expression is two-fold: firstly, such molecules would help us gain insight into the complex transcriptional control of alpha7 integrin. It is known that alpha7 integrin expression is tightly controlled during various stages of development, disease and in response to external stimuli. The second goal of the project is to translate the above finding into a therapeutic strategy for muscular dystrophy. […] Thus this project aims to discover small molecule probes that would not only help in gaining a better understanding of the complex regulatory mechanism of alpha7 integrin expression, but also lead to development of pharmacological agents to fight muscular dystrophy. NIH Chemical Genomics Center [NCGC] NIH Molecular Libraries Probe Centers Network [MLPCN] MLPCN Grant: NS058429 Assay Submitter (PI): Dean Burkin, University of Nevada School of Medicine
# A total of 250 alpha7betagal+/- myoblasts at passage 13 were dispensed using a mulitdrop from Thermo into black low base tissue culture treated microclear aurora plates in 6 ul media containing DMEM without phenol, 5% FBS, 1x GluMax and 1x Penicillin/Streptomycin. The plates were incubated 16-24 hr at 37C, 5% CO2, 95% humidity covered with low evaporation stainless steel lids from Kalypsys. Compounds were then dispensed using a Kalypsys pintool to deliver 23 nl/well compounds in DMSO (diluted into 6 uL resulting in a 1:260 dilution of compound). The control compound used was the cdk2 inhibitor SU9516 from Tocirs (found in the initial LOPAC screen). The plates were incubated for 48 hours at 37C, 5% CO2, 95% humidity using the same stainless steel lids. After incubation with compound, 5 ul of the media was aspirated using the Kalypsys washer/dispenser and 3 ul of the Mammalian Protein Extraction Reagent (MPER) lysis buffer (Thermo Fisher) was added. The plates were spun at 2000 rpms to remove bubbles and an initial capture was acquired on the Viewlux (Perkin Elmer) with exciation at 480 nm and emission at 540 nm for 25 seconds to omit any auto fluorescent compounds. The plates were then incubated for 10 minutes at room temperature. After incubation, 3 ul of 125 uM Fluorescein di-galactoside (FDG) (Marker Gene Technologies) diluted in PBS with 2 mM MgCl2 and 0.2% betamercaptoethanol (BME) was added, the plates were spun at 2000 rpms and incubated for 30 minutes at room temperature. The plates were again read on the Viewlux with exciation at 480 nm and emission at 540 nm for 25 seconds.
# Potency is read from the fitted curve at half-maximal effect.
Structure (SMILES),activation,Potency
CC(NCc1cccs1)C(=O)NC1CCCCC1 (stereo not given),inactive: 3.58%,
Cn1nc(-c2ccccc2)c(N2CCCCC2)cc1=O,,"inconclusive: 17.8 µM [activator, partial curve, poor fit]"
CC(C)CN(C(=O)C1CCCO1)C1CCS(=O)(=O)C1 (stereo not given),inactive: 0.587%,
CN(C(=O)c1cccc([N+](=O)[O-])c1)c1ccccc1C(=O)NCc1ccccc1,,"inconclusive: 5.01 µM [activator, single point]"
CC(C)(C)C1CCC(=NNC(=S)NCc2ccccc2)CC1 (stereo not given),,"inconclusive: 2.82 µM [activator, single point]"
Cc1ccc(C(=O)Nc2ccon2)cc1S(=O)(=O)N1CCCCCC1,inactive: 5.51%,
O=C(c1ccc(N2CCOCC2)cc1[N+](=O)[O-])N1CCOCC1,,"inconclusive: 28.2 µM [activator, single point]"
Nc1ccc(S(=O)(=O)c2ccc(N)c(N)c2)cc1,inactive: 40%,
CCC(=O)Nc1ccc2c(c1)nc(CCN1CCC(C)CC1)n2C,,"inconclusive: 28.2 µM [activator, single point]"
O=C(CCN1CCN(c2ccccc2)CC1)NNC(=S)Nc1ccccc1,,"inconclusive: 28.2 µM [activator, single point]"
COc1ccc(OC)c(N=Cc2c(O)[nH]c3ccccc23)c1,,"inconclusive: 1 µM [activator, full curve, poor fit]"
Brc1ccc(-c2nnc(Cc3ccccc3)o2)cc1,,"inconclusive: 28.2 µM [activator, single point]"
CCOC(=O)CC(NC(=O)c1cccs1)c1ccc(C)cc1 (stereo not given),,"inconclusive: 0.501 µM [activator, full curve, poor fit]"
COc1ccc(CNC(=O)C2CC(C)=CCC2C(=O)O)cc1 (stereo not given),,"inconclusive: 12.6 µM [activator, single point]"
COc1ccc(O)c(C(=O)c2cnn(-c3ccc(Cl)cc3)c2)c1,,"inconclusive: 2.82 µM [activator, single point]"
COc1cc(/C=N/NC(=O)c2cccc3ccccc23)cc(OC)c1O,,"inconclusive: 3.16 µM [activator, single point]"
CCOc1ccc(S(=O)(=O)N2CCCC(C(=O)N3CCOCC3)C2)cc1C (stereo not given),,"inconclusive: 3.55 µM [activator, single point]"
CCOc1ccc(C(=O)N2CCN(c3cccc(Cl)c3)CC2)cc1,inactive: 0%,
Cc1ccc(-c2nnn3c2nc(NC(C)C)c2ccccc23)cc1,,"inconclusive: 5.01 µM [activator, single point]"
CCOCCCNc1nc2ccccc2[nH]1,inactive: 9.55%,
CCOc1ccccc1C1CC(=O)NC(SCC)=C1C#N (stereo not given),inactive: -12.2%,
COc1ccc(CN(C(=O)CN2C(=O)C(C)Oc3ccccc32)C2CCCC2)c(OC)c1 (stereo not given),,"inconclusive: 5.01 µM [activator, single point]"
COc1ccc(S(=O)(=O)N2CCCCC2)cc1NC(=O)Cc1ccsc1,,"inconclusive: 14.1 µM [activator, single point]"
CCc1nnc(NS(=O)(=O)c2ccc(Nc3ccc([N+](=O)[O-])c4nonc34)cc2)s1,,"inconclusive: 28.2 µM [activator, single point]"

Structure (SMILES),activation,Potency
C=CCn1c(=O)c2ccccc2n2c(SCC(=O)NC(C)C)nnc12,,"inconclusive: 3.16 µM [activator, single point]"
CC(=O)Nc1ccc(OCC(O)Cn2nc(C)c(C(C)=O)c2C)cc1 (stereo not given),,"inconclusive: 10 µM [activator, single point]"
COc1ccc(OC)c(Nc2nc(-c3ccccc3O)nc3ccccc23)c1,,"inconclusive: 5.01 µM [activator, single point]"
Cc1ccccc1/C=C1\SC(=S)N(/N=C/c2cc([N+](=O)[O-])ccc2O)C1=O,,"inconclusive: 11.2 µM [activator, partial curve, poor fit]"
Cc1c(C(=O)N(Cc2ccccc2)C(C)C)oc2ccc(S(=O)(=O)N3CCOCC3)cc12,inactive: -24.4%,
O=C(Nc1ccc2c(c1)CCC2)C1CCN(c2c3c(nc4ncnn24)CCC3)CC1,inactive: -6.36% [at 7.66 µM],
COc1ccc(S(=O)(=O)NC2CCCC2)cc1NC(C)=O,,"inconclusive: 2 µM [activator, partial curve, poor fit]"
O=c1[nH]c2ccccc2c2ccc(Cl)cc12,,"inconclusive: 2.51 µM [activator, single point]"
CN(c1ccccc1)S(=O)(=O)c1ccc(NC(=S)NC(=O)c2ccccc2)cc1,inactive: -32.1%,
Cn1cc(CCC(=O)NCc2cccc(Cl)c2)c2ccccc21,,"inconclusive: 5.01 µM [activator, full curve, poor fit]"
Cc1[nH]c2ccc(-c3n[nH]c(=S)n3C)cc2c1C,,"inconclusive: 14.1 µM [activator, single point]"
O=C(Nc1ccccc1C(F)(F)F)c1ccc2nccnc2c1,,"inconclusive: 11.2 µM [activator, single point]"
Cc1ccc(-c2cn(S(=O)(=O)c3cccc4nsnc34)nc2N)cc1,,"inconclusive: 11.2 µM [activator, partial curve, poor fit]"
COc1cc(S(=O)(=O)Nc2cccc3cn[nH]c23)c(OC)cc1C,,"inconclusive: 28.2 µM [activator, single point]"
Cc1ccccc1C(=O)NN(C)c1nc2ccccc2nc1C(F)(F)F,inactive: 10.1%,
Cc1ccccc1NC(=O)Cc1nc(COC(=O)c2cccc(O)c2)cs1,,"inconclusive: 3.16 µM [activator, partial curve, poor fit]"
COCCCNC(=S)N1CCN(C(c2ccccc2)c2ccccc2)CC1,inactive: 0.831%,
Cc1ccc(-c2c[n+](Cc3ccc(Cl)cc3)c3n2CCC3)cc1,inactive: -12.7%,
NS(=O)(=O)c1ccc(NC(=O)Nc2ccc(C(F)(F)F)cc2)cc1,,"inconclusive: 3.16 µM [activator, single point]"
CS(=O)(=O)Cc1cccc(C(=O)NN(c2ccccc2)c2ccccc2)c1,,active: 12.6 µM
Cc1csc(NC(=O)c2cc3ccccc3o2)n1,,"inconclusive: 12.6 µM [activator, partial curve, poor fit]"
N#Cc1c(-c2ccccc2)cc(-c2ccccc2)nc1SCc1nnc(-c2ccccc2)o1,,"inconclusive: 12.6 µM [activator, single point]"
O=C(C[n+]1ccc2c(c1)nnn2-c1ccccc1)c1ccc(Cl)cc1,,"inconclusive: 10 µM [activator, single point]"
O=C(O)c1cnn(-c2nc(-c3ccc(Br)cc3)cs2)c1C(F)(F)F,inactive: -14.2%,

Structure (SMILES),activation,Potency
Cc1ccc(/C=C2\SC(=S)N(CCC(=O)N3CCCCC3)C2=O)cc1,inactive: -30.3%,
CC(=O)C1=C(C)OC(N)=C(C#N)C1c1ccco1 (stereo not given),inactive: -16.6%,
CCCOc1ccc(C(CC(=O)O)NC(=O)c2cccs2)cc1 (stereo not given),,"inconclusive: 3.98 µM [activator, single point]"
CCOc1ccc(-c2csc(NC(=O)c3cccc(N4C(=O)CCC4=O)c3)n2)cc1,inactive: 4.71%,
Clc1ccc(-c2nnc(-c3ccccc3)o2)cn1,,"inconclusive: 3.16 µM [activator, full curve, poor fit]"
O=C(Nc1nnc(-c2ccccc2Cl)s1)c1ccccc1F,,"inconclusive: 10 µM [activator, partial curve]"
Cc1cccc(NC(=O)CCc2ccc(S(=O)(=O)NC3CCCCC3)cc2)c1,inactive: 40.6%,
COc1ccc(CCN(C)C2CCCN(S(=O)(=O)C(C)C)C2)cc1OC (stereo not given),,"inconclusive: 11.2 µM [activator, single point]"
Cc1ccc(CNC(=O)c2ccc(CS(=O)Cc3ccccc3Cl)o2)cc1 (stereo not given),,"inconclusive: 1.12 µM [activator, partial curve, poor fit]"
Cc1cc(C)nc(SCC(=O)N(C)CC(=O)Nc2c(Cl)cccc2Cl)n1,,"inconclusive: 3.55 µM [activator, single point]"
CC1CCCC(=NNC(=O)C2COc3ccccc3O2)C1 (stereo not given),,"inconclusive: 5.62 µM [activator, partial curve, poor fit]"
CSc1ncccc1C(=O)N1CCN(S(=O)(=O)c2ccccc2)CC1,,"inconclusive: 31.6 µM [activator, partial curve, poor fit]"
Cc1ccc(-c2nc3[nH]c(=O)cc(NC(=O)C(C)C)n3n2)cc1,inactive: -4.06%,
CNS(=O)(=O)/C=C/c1ccccc1,,"inconclusive: 5.01 µM [activator, single point]"
CCOCCCn1c(=S)[nH]c2cc(C(=O)N3CCN(C)CC3)ccc2c1=O,inactive: 18.5%,
COc1ccc(-c2nc(C(N)=O)c3[nH]c(=O)n(-c4ccccc4OC)c3n2)c(OC)c1,inactive: -15.6%,
Cc1oc2c(CN3CCCCC3)c(O)ccc2c(=O)c1-c1ccc(Cl)cc1,,"inconclusive: 28.2 µM [activator, single point]"
Cc1ccc(CS(=O)(=O)CCC(=O)O)cc1,,"inconclusive: 11.2 µM [activator, single point]"
Fc1ccccc1-c1nc(-c2ccc(Br)o2)no1,,"inconclusive: 0.891 µM [activator, partial curve, poor fit]"
COc1ccccc1C/C(N)=N/OC(=O)c1ccco1,,"inconclusive: 15.8 µM [activator, single point]"
CCC(=O)N1CCc2cc(S(=O)(=O)NCCC(=O)N3CCN(c4cccc(C)c4)C(C)C3)ccc21 (stereo not given),,"inconclusive: 8.91 µM [activator, partial curve]"
Cc1nn(C(=O)CCC(=O)NCc2ccccc2Cl)c2ccccc12,,"inconclusive: 5.01 µM [activator, single point]"

# Part of the list above in a different format:
Structure (SMILES) | activation | Potency
Fc1ccccc1-c1nc(-c2ccc(Br)o2)no1 |  | inconclusive: 0.891 µM [activator, partial curve, poor fit]
COc1ccccc1C/C(N)=N/OC(=O)c1ccco1 |  | inconclusive: 15.8 µM [activator, single point]
